Measured values published in article doi:10.1101/2023.08.20.554005.
Results are given in words; binding and its absence hold for the method and conditions named. Binding seen in cells or lysates may run through a third protein. Some entries that bind do so weakly or less than the wild type. Where a sequence is shown, tags or fusion partners need not be part of it.

Biological target: T1, BirA*-Flag JUN WT (293T), P05412
T1 chain: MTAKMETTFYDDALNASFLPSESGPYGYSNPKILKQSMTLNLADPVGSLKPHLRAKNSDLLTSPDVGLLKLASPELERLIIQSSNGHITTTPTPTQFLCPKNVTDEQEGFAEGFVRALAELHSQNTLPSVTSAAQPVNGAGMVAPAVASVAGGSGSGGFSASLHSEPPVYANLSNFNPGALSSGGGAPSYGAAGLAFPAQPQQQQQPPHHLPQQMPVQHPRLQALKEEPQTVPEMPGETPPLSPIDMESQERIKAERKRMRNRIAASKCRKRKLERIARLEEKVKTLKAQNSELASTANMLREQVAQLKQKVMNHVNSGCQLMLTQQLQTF
Assay: co-IP
Conditions: remark: other sources report otherwise

B1: HA-JUN WT, P05412 1-331 (protein)
chain: MTAKMETTFYDDALNASFLPSESGPYGYSNPKILKQSMTLNLADPVGSLKPHLRAKNSDLLTSPDVGLLKLASPELERLIIQSSNGHITTTPTPTQFLCPKNVTDEQEGFAEGFVRALAELHSQNTLPSVTSAAQPVNGAGMVAPAVASVAGGSGSGGFSASLHSEPPVYANLSNFNPGALSSGGGAPSYGAAGLAFPAQPQQQQQPPHHLPQQMPVQHPRLQALKEEPQTVPEMPGETPPLSPIDMESQERIKAERKRMRNRIAASKCRKRKLERIARLEEKVKTLKAQNSELASTANMLREQVAQLKQKVMNHVNSGCQLMLTQQLQTF
- binding: binds
